# Source: the supplement of paper PMC8728848
# Some of the results follow.
# Tests used:
# Experiment in all cases: glycan array binding signal (z-score within array); higher = stronger binding
# Details in all cases: glycan notation: IUPAC condensed, linker removed
# [1] = molecular target: Fuc(b1-3)GlcNAc
# Method in brief: (§1)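 The Consortium for Functional Glycomics database supplied 3228 glycan arrays, of which those lacking an available protein sequence were dropped. The binding signal, a within-array Z-score, was averaged across arrays of the same protein sequence and across linkers. Negative scores can be read as non-binding.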
# [2] = molecular target: Gal(a1-2)Gal
# Method in brief: as §1
# [3] = molecular target: Gal(a1-3)Gal
# Method in brief: as §1
# [4] = molecular target: Gal(a1-3)Gal(b1-3)Glc
# Method in brief: as §1
# [5] = molecular target: Gal(a1-3)Gal(b1-3)GlcNAc
# Method in brief: as §1
# [6] = molecular target: Gal(a1-3)Gal(b1-4)GlcNAc
# Method in brief: as §1
# [7] = molecular target: Gal(a1-3)Gal(b1-4)[Fuc(a1-3)]GalNAc
# Method in brief: as §1
# [8] = molecular target: Gal(a1-3)GlcNAc
# Method in brief: as §1
# [9] = molecular target: Gal(a1-3)[Gal(a1-4)]Gal(b1-4)GlcNAc
# Method in brief: as §1
# [10] = molecular target: Gal(a1-4)Gal(b1-4)Gal
# Method in brief: as §1
# [11] = molecular target: Gal(a1-4)Gal(b1-4)GalNAc
# Method in brief: as §1
# [12] = molecular target: Gal(a1-4)GlcNAc
# Method in brief: as §1
# [13] = molecular target: Gal(a1-6)Glc
# Method in brief: as §1
# [14] = molecular target: Gal(b1-2)Gal
# Method in brief: as §1
# [15] = molecular target: Gal(b1-3)Gal
# Method in brief: as §1
# [16] = molecular target: Gal(b1-3)GalNAc
# Method in brief: as §1
# [17] = molecular target: Gal(b1-3)GalNAc(b1-3)Gal(a1-4)Gal(b1-4)Glc
# Method in brief: as §1
# [18] = molecular target: Gal(b1-3)GalNAc(b1-3)Gal(b1-4)Glc
# Method in brief: as §1
# [19] = molecular target: Gal(b1-3)GalNAc(b1-3)Gal(b1-4)GlcNAc
# Method in brief: as §1
# [20] = molecular target: Gal(b1-3)GalNAc(b1-4)Gal(b1-4)Glc
# Method in brief: as §1
# [21] = molecular target: Gal(b1-3)GalNAc(b1-4)[Neu5Ac(a2-3)]Gal(b1-4)Glc
# Method in brief: as §1
# [22] = molecular target: Gal(b1-3)GlcNAc(b1-3)Gal(b1-3)GlcNAc
# Method in brief: as §1
# [23] = molecular target: Gal(b1-3)[Fuc(a1-4)]GlcNAc
# Method in brief: as §1
# [24] = molecular target: Gal(b1-3)[Fuc(a1-4)]GlcNAc(b1-3)Gal(b1-3)[Fuc(a1-4)]GlcNAc
# Method in brief: as §1
# [25] = molecular target: Gal(b1-3)[Fuc(a1-4)]GlcNAc(b1-3)Gal(b1-4)GlcNAc
# Method in brief: as §1
# [26] = molecular target: Gal(b1-3)[Fuc(a1-4)]GlcNAc(b1-3)Gal(b1-4)[Fuc(a1-3)]GlcNAc
# Method in brief: as §1
# [27] = molecular target: Gal(b1-3)[GlcNAc(b1-6)]GalNAc
# Method in brief: as §1
# [28] = molecular target: Gal(b1-3)[GlcNAc(b1-6)]GlcNAc
# Method in brief: as §1
# [29] = molecular target: Gal(b1-3)[Neu5Ac(a2-6)]GalNAc
# Method in brief: as §1
# [30] = molecular target: Gal(b1-3)[Neu5Ac(a2-6)]GlcNAc
# Method in brief: as §1
# [31] = molecular target: Gal(b1-3)[Neu5Ac(a2-6)]GlcNAc(a1-4)Gal(b1-4)Glc
# Method in brief: as §1
# [32] = molecular target: Gal(b1-3)[Neu5Ac(b2-6)]GlcNAc
# Method in brief: as §1
# [33] = molecular target: Gal(b1-4)GalNAc(a1-3)[Fuc(a1-2)]Gal(b1-4)GlcNAc
# Method in brief: as §1
# [34] = molecular target: Gal(b1-4)GalNAc(b1-3)[Fuc(a1-2)]Gal(b1-4)GlcNAc
# Method in brief: as §1
# [35] = molecular target: Gal(b1-4)Glc
# Method in brief: as §1
# [36] = molecular target: Gal(b1-4)Glc6S
# Method in brief: as §1
# [37] = molecular target: Gal(b1-4)GlcNAc
# Method in brief: as §1
# [38] = molecular target: Gal(b1-4)GlcNAc(b1-2)Man(a1-3)[Gal(b1-4)GlcNAc(b1-2)Man(a1-6)]Man(b1-4)GlcNAc(b1-4)GlcNAc
# Method in brief: as §1
# [39] = molecular target: Gal(b1-4)GlcNAc(b1-3)Gal(b1-3)GlcNAc
# Method in brief: as §1
# [40] = molecular target: Gal(b1-4)GlcNAc(b1-3)Gal(b1-4)Glc
# Method in brief: as §1
# [41] = molecular target: Gal(b1-4)GlcNAc(b1-3)Gal(b1-4)GlcNAc
# Method in brief: as §1
# [42] = molecular target: Gal(b1-4)GlcNAc(b1-3)Gal(b1-4)GlcNAc(b1-3)Gal(b1-4)GlcNAc
# Method in brief: as §1
# [43] = molecular target: Gal(b1-4)GlcNAc(b1-3)Gal(b1-4)[Fuc(a1-3)]GlcNAc(b1-3)Gal(b1-4)[Fuc(a1-3)]GlcNAc
# Method in brief: as §1
# [44] = molecular target: Gal(b1-4)GlcNAc(b1-3)GalNAc
# Method in brief: as §1
# [45] = molecular target: Gal(b1-4)GlcNAc(b1-3)[Gal(b1-4)GlcNAc(b1-6)]GalNAc
# Method in brief: as §1
binder,measurement,setting,value
"KCR (Mus musculus), P70194 (protein) MKEAELNRDMARYCTDNQCVSLQPQGLGPKSAALMAPRTLRHVQVILALMVVTVIFSLLALFVVASQPWRPEWNKEPPSLLLRGSNNSGHDNHSQFVRETEMQVAIQRLRDYEENSSSCHKEVQILKYQMDNVSSLVQLLGSHLEDVNADILQTKDVLKESGALALETQALRSSLEVASADIHSLRGDLEKANAMTSQTRGLLKSSTENTSAELHVLGRGLEEAQSEIQALRGSLQSANDLSSQTQGFLQHSMDNISAQIQTVRDGMERAGEKMNSLKKELETLTAQTQKANGHLEQTDAQIQGLKAELKSTSSLNSRIEVVNGQMKDASRELQTLRRDLSDVSALKSNVQMLQSNLQRAKTEMQTLKADLQATKALTAKIQGEQNRLGALQEAVAAQKQEQKTQNQVLQLIAQNWKYFNGNFYYFSRDKKPWREAEKFCTSQGAHLASVTSQEEQAFLVQTTSSGDHWIGLTDQGTEGIWRWVDGTPFNNAQSKGFWGKNQPDNWRHRNGEREDCVHVRQQWNDMACGSSYPWVCKKSTGWSAARVG",glycan array binding signal (z-score),[1],-0.284
same,glycan array binding signal (z-score),[2],-0.57
same,glycan array binding signal (z-score),[3],0.035
same,glycan array binding signal (z-score),[4],-0.236
same,glycan array binding signal (z-score),[5],-0.075
same,glycan array binding signal (z-score),[6],0.005
same,glycan array binding signal (z-score),[7],0.117
same,glycan array binding signal (z-score),[8],-0.138
same,glycan array binding signal (z-score),[9],0.524
same,glycan array binding signal (z-score),[10],-0.026
same,glycan array binding signal (z-score),[11],-0.356
same,glycan array binding signal (z-score),[12],0.207
same,glycan array binding signal (z-score),[13],0.312
same,glycan array binding signal (z-score),[14],-0.225
same,glycan array binding signal (z-score),[15],0.012
same,glycan array binding signal (z-score),[16],0.154
same,glycan array binding signal (z-score),[17],0.244
same,glycan array binding signal (z-score),[18],-0.052
same,glycan array binding signal (z-score),[19],-0.387
same,glycan array binding signal (z-score),[20],0.07
same,glycan array binding signal (z-score),[21],0.387
same,glycan array binding signal (z-score),[22],-0.594
same,glycan array binding signal (z-score),[23],1.28
same,glycan array binding signal (z-score),[24],0.348
same,glycan array binding signal (z-score),[25],0.122
same,glycan array binding signal (z-score),[26],0.974
same,glycan array binding signal (z-score),[27],-0.209
same,glycan array binding signal (z-score),[28],-0.325
same,glycan array binding signal (z-score),[29],0
same,glycan array binding signal (z-score),[30],0.083
same,glycan array binding signal (z-score),[31],0.04
same,glycan array binding signal (z-score),[32],0.293
same,glycan array binding signal (z-score),[33],0.064
same,glycan array binding signal (z-score),[34],0.906
same,glycan array binding signal (z-score),[35],-0.247
same,glycan array binding signal (z-score),[36],1.06
same,glycan array binding signal (z-score),[37],-0.353
same,glycan array binding signal (z-score),[38],-0.456
same,glycan array binding signal (z-score),[39],-0.749
same,glycan array binding signal (z-score),[40],0
same,glycan array binding signal (z-score),[41],0.196
same,glycan array binding signal (z-score),[42],-0.732
same,glycan array binding signal (z-score),[43],-0.057
same,glycan array binding signal (z-score),[44],-0.633
same,glycan array binding signal (z-score),[45],-0.227

# A second format for part of the listing above.
binder	measurement	setting	value
KCR (Mus musculus), P70194 (protein) MKEAELNRDMARYCTDNQCVSLQPQGLGPKSAALMAPRTLRHVQVILALMVVTVIFSLLALFVVASQPWRPEWNKEPPSLLLRGSNNSGHDNHSQFVRETEMQVAIQRLRDYEENSSSCHKEVQILKYQMDNVSSLVQLLGSHLEDVNADILQTKDVLKESGALALETQALRSSLEVASADIHSLRGDLEKANAMTSQTRGLLKSSTENTSAELHVLGRGLEEAQSEIQALRGSLQSANDLSSQTQGFLQHSMDNISAQIQTVRDGMERAGEKMNSLKKELETLTAQTQKANGHLEQTDAQIQGLKAELKSTSSLNSRIEVVNGQMKDASRELQTLRRDLSDVSALKSNVQMLQSNLQRAKTEMQTLKADLQATKALTAKIQGEQNRLGALQEAVAAQKQEQKTQNQVLQLIAQNWKYFNGNFYYFSRDKKPWREAEKFCTSQGAHLASVTSQEEQAFLVQTTSSGDHWIGLTDQGTEGIWRWVDGTPFNNAQSKGFWGKNQPDNWRHRNGEREDCVHVRQQWNDMACGSSYPWVCKKSTGWSAARVG	glycan array binding signal (z-score)	[26]	0.974
same	glycan array binding signal (z-score)	[32]	0.293
